# According to the supplement of paper PMC12819154, “High-throughput peptide-centric local stability assay extends protein–ligand identification to membrane proteins, tissues and bacteria” (Nature Structural & Molecular Biology, 2025):
# Protein sequences, listed by entry. Tags and fused reporters are not part of them. Lines headed by an entry give the natural chain unless they say otherwise; changes in a name come on top.
# UniProt P76272: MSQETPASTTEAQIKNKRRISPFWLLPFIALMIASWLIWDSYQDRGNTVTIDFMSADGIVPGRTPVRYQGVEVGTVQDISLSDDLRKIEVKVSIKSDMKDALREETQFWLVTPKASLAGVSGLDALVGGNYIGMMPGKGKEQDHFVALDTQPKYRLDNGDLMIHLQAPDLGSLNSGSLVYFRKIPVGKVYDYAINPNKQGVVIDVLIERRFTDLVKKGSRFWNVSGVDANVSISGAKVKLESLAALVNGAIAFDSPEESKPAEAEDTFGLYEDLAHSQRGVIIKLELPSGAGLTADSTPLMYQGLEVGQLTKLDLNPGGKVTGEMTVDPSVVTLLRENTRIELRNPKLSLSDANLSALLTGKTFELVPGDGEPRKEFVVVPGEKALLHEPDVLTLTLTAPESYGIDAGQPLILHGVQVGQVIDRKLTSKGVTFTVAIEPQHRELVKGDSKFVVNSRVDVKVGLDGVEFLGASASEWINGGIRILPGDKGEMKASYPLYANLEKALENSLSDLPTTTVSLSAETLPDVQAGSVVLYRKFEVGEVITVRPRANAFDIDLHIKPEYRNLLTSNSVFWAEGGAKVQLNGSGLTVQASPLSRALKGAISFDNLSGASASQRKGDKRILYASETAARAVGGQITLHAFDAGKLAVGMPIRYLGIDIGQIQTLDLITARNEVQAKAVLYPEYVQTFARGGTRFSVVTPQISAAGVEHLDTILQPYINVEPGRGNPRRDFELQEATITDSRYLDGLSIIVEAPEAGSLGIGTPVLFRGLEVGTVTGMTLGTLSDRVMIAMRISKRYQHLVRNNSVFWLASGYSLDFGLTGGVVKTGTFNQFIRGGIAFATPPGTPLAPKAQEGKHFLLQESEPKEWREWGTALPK
# UniProt P77402: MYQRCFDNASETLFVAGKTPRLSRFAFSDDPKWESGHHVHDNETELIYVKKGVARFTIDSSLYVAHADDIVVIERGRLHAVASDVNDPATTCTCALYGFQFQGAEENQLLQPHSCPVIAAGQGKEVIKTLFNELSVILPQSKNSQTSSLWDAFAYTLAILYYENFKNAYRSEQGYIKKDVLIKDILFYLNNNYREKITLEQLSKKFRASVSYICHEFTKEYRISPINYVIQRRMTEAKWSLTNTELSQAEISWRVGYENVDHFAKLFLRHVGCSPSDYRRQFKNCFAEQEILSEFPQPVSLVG
# UniProt P77215: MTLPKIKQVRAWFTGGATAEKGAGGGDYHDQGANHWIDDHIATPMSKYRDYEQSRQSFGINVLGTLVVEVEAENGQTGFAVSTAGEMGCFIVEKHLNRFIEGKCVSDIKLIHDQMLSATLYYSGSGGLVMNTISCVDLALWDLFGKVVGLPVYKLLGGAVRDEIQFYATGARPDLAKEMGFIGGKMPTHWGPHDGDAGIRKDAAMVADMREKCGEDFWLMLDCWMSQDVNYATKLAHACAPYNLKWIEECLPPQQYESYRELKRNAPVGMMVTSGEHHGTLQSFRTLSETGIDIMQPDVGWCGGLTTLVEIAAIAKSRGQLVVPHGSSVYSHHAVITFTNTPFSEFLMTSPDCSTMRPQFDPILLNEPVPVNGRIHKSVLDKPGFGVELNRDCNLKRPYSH
# UniProt P76481: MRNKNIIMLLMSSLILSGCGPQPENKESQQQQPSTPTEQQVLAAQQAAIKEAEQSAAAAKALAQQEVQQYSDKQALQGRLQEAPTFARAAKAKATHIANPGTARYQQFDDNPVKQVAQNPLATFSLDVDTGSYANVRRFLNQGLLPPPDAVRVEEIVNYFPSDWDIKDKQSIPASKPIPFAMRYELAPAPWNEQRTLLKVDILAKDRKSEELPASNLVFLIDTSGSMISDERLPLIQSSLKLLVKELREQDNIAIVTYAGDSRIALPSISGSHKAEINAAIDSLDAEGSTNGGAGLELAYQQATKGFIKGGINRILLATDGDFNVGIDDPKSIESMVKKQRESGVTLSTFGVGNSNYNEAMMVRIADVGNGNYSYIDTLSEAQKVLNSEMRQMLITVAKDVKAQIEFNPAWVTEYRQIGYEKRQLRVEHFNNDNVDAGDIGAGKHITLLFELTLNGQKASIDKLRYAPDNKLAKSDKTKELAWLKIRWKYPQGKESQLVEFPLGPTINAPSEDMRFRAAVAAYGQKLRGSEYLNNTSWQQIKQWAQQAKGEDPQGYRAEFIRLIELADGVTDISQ
# UniProt P77396: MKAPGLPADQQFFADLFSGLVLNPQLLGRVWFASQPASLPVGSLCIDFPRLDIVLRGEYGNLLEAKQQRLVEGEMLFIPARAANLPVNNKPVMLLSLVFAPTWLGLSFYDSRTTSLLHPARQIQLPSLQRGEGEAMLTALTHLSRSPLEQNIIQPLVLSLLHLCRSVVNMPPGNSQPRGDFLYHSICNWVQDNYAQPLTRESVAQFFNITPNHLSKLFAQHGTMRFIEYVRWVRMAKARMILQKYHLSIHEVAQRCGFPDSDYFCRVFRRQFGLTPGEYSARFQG
# This is one part of the list. Most values lie at the level of the controls, where differences are scatter.
# Compound: CC1(C)S[C@@H]2[C@H](NC(=O)[C@H](N)c3ccccc3)C(=O)N2[C@H]1C(=O)O [ampicillin]
# Experiment: log2 fold change of tryptic peptide abundance, ligand vs vehicle (limited proteolysis) (log2 ratio); higher = more trypsin-susceptible (destabilized)
# Settings: ligand concentration: 10 uM; sample: E. coli crude lysate
row,Target,log2 fold change
1,"UniProt P76272 (peptide sequence: ANAFDIDLHIKPEYR, peptide start residue: 550)",-0.158
2,"UniProt P77402 (peptide sequence: VGYENVDHFAK, peptide start residue: 255)",-0.488
3,"UniProt P77215 (peptide sequence: AWFTGGATAEK, peptide start residue: 11)",-0.146
4,"UniProt P76481 (peptide sequence: LQEAPTFAR, peptide start residue: 80)",-0.0284
5,"UniProt P77396 (peptide sequence: QFGLTPGEYSAR, peptide start residue: 271)",0.234
